The values below come from patent publication US20060257938A1, “Method of screening for drugs that block ligand binding to a lipid binding protein” (priority 2005, published 2006).

To fix the notation:
B1: 51D1, 72A (protein, listed as Rattus norvegicus)
chain: AFDGTWKVDRNENYEKFMEKMGINVVKRKLGAHDNLKLTITQEGNKFTVKDSSNFRNIDVVFELGVDFAYSAADGTELTGTWTMEGNKLVGKFKRVDNGKELIAVREISGNELIQTYTYEGVEAKRIFKKE
modifications: PEPTIDE (1)...(131) wild-type rat intestinal fatty acid binding protein
B2: 55E, 72A (protein, listed as Rattus norvegicus)
chain: AFDGTWKVDRNENYEKFMEKMGINVVKRKLGAHDNLKLTITQEGNKFTVKESSNERNIDVVFELGVDFAYSAADGTELTGTWTMEGNKLVGKFKRVDNGKELIAVREISGNELIQTYTYEGVEAKRIFKKE
modifications: PEPTIDE (1)...(131) wild-type rat intestinal fatty acid binding protein
B3: 51T3, 72A (protein, listed as Rattus norvegicus)
chain: AFDGTWKVDRNENYEKFMEKMGINVVKRKLGAHDNLKLTITQEGNKFTVKTSSNFRNIDVVFELGVDFAYSAADGTELTGTWTMEGNKLVGKFKRVDNGKELIAVREISGNELIQTYTYEGVEAKRIFKKE
modifications: PEPTIDE (1)...(131) wild-type rat intestinal fatty acid binding protein
B4: 51L3, 72A (protein, listed as Rattus norvegicus)
chain: AFDGTWKVDRNENYEKFMEKMGINVVKRKLGAHDNLKLTITQEGNKFTVKLSSNFRNIDVVFELGVDFAYSAADGTELTGTWTMEGNKLVGKFKRVDNGKELIAVREISGNELIQTYTYEGVEAKRIFKKE
modifications: PEPTIDE (1)...(131) wild-type rat intestinal fatty acid binding protein
B5: 51I1, 72A (protein, listed as Rattus norvegicus)
chain: AFDGTWKVDRNENYEKFMEKMGINVVKRKLGAHDNLKLTITQEGNKFTVKISSNFRNIDVVFELGVDFAYSAADGTELTGTWTMEGNKLVGKFKRVDNGKELIAVREISGNELIQTYTYEGVEAKRIFKKE
modifications: PEPTIDE (1)...(131) wild-type rat intestinal fatty acid binding protein
B6: 51F1, 72A (protein, listed as Rattus norvegicus)
chain: AFDGTWKVDRNENYEKFMEKMGINVVKRKLGAHDNLKLTITQEGNKFTVKFSSNFRNIDVVFELGVDFAYSAADGTELTGTWTMEGNKLVGKFKRVDNGKELIAVREISGNELIQTYTYEGVEAKRIFKKE
modifications: PEPTIDE (1)...(131) wild-type rat intestinal fatty acid binding protein
B7: 51Y1, 72A (protein, listed as Rattus norvegicus)
chain: AFDGTWKVDRNENYEKFMEKMGINVVKRKLGAHDNLKLTITQEGNKFTVKYSSNFRNIDVVFELGVDFAYSAADGTELTGTWTMEGNKLVGKFKRVDNGKELIAVREISGNELIQTYTYEGVEAKRIFKKE
modifications: PEPTIDE (1)...(131) wild-type rat intestinal fatty acid binding protein
B8: 51V3, 72A (protein, listed as Rattus norvegicus)
chain: AFDGTWKVDRNENYEKFMEKMGINVVKRKLGAHDNLKLTITQEGNKFTVKVSSNFRNIDVVFELGVDFAYSAADGTELTGTWTMEGNKLVGKFKRVDNGKELIAVREISGNELIQTYTYEGVEAKRIFKKE
modifications: PEPTIDE (1)...(131) wild-type rat intestinal fatty acid binding protein
B9: 55G1, 72A (protein, listed as Rattus norvegicus)
chain: AFDGTWKVDRNENYEKFMEKMGINVVKRKLGAHDNLKLTITQEGNKFTVKESSNGRNIDVVFELGVDFAYSAADGTELTGTWTMEGNKLVGKFKRVDNGKELIAVREISGNELIQTYTYEGVEAKRIFKKE
modifications: PEPTIDE (1)...(131) wild-type rat intestinal fatty acid binding protein
B10: 55D1, 72A (protein, listed as Rattus norvegicus)
chain: AFDGTWKVDRNENYEKFMEKMGINVVKRKLGAHDNLKLTITQEGNKFTVKESSNDRNIDVVFELGVDFAYSAADGTELTGTWTMEGNKLVGKFKRVDNGKELIAVREISGNELIQTYTYEGVEAKRIFKKE
modifications: PEPTIDE (1)...(131) wild-type rat intestinal fatty acid binding protein
B11: 55H2, 72A (protein, listed as Rattus norvegicus)
chain: AFDGTWKVDRNENYEKFMEKMGINVVKRKLGAHDNLKLTITQEGNKFTVKESSNHRNIDVVFELGVDFAYSAADGTELTGTWTMEGNKLVGKFKRVDNGKELIAVREISGNELIQTYTYEGVEAKRIFKKE
modifications: PEPTIDE (1)...(131) wild-type rat intestinal fatty acid binding protein
B12: 51W2, 72A (protein, listed as Rattus norvegicus)
chain: AFDGTWKVDRNENYEKFMEKMGINVVKRKLGAHDNLKLTITQEGNKFTVKWSSNFRNIDVVFELGVDFAYSAADGTELTGTWTMEGNKLVGKFKRVDNGKELIAVREISGNELIQTYTYEGVEAKRIFKKE
modifications: PEPTIDE (1)...(131) wild-type rat intestinal fatty acid binding protein
B13: 51G1, 72A (protein, listed as Rattus norvegicus)
chain: AFDGTWKVDRNENYEKFMEKMGINVVKRKLGAHDNLKLTITQEGNKFTVKGSSNFRNIDVVFELGVDFAYSAADGTELTGTWTMEGNKLVGKFKRVDNGKELIAVREISGNELIQTYTYEGVEAKRIFKKE
modifications: PEPTIDE (1)...(131) wild-type rat intestinal fatty acid binding protein
B14: 51H1, 72A (protein, listed as Rattus norvegicus)
chain: AFDGTWKVDRNENYEKFMEKMGINVVKRKLGAHDNLKLTITQEGNKFTVKHSSNFRNIDVVFELGVDFAYSAADGTELTGTWTMEGNKLVGKFKRVDNGKELIAVREISGNELIQTYTYEGVEAKRIFKKE
modifications: PEPTIDE (1)...(131) wild-type rat intestinal fatty acid binding protein
B15: 51K1, 72A (protein, listed as Rattus norvegicus)
chain: AFDGTWKVDRNENYEKFMEKMGINVVKRKLGAHDNLKLTITQEGNKFTVKKSSNFRNIDVVFELGVDFAYSAADGTELTGTWTMEGNKLVGKFKRVDNGKELIAVREISGNELIQTYTYEGVEAKRIFKKE
modifications: PEPTIDE (1)...(131) wild-type rat intestinal fatty acid binding protein
B16: 51R1, 72A (protein, listed as Rattus norvegicus)
chain: AFDGTWKVDRNENYEKFMEKMGINVVKRKLGAHDNLKLTITQEGNKFTVKRSSNFRNIDVVFELGVDFAYSAADGTELTGTWTMEGNKLVGKFKRVDNGKELIAVREISGNELIQTYTYEGVEAKRIFKKE
modifications: PEPTIDE (1)...(131) wild-type rat intestinal fatty acid binding protein
B17: 51P3, 72A (protein, listed as Rattus norvegicus)
chain: AFDGTWKVDRNENYEKFMEKMGINVVKRKLGAHDNLKLTITQEGNKFTVKPSSNFRNIDVVFELGVDFAYSAADGTELTGTWTMEGNKLVGKFKRVDNGKELIAVREISGNELIQTYTYEGVEAKRIFKKE
modifications: PEPTIDE (1)...(131) wild-type rat intestinal fatty acid binding protein
B18: 51S1, 72A (protein, listed as Rattus norvegicus)
chain: AFDGTWKVDRNENYEKFMEKMGINVVKRKLGAHDNLKLTITQEGNKFTVKSSSNFRNIDVVFELGVDFAYSAADGTELTGTWTMEGNKLVGKFKRVDNGKELIAVREISGNELIQTYTYEGVEAKRIFKKE
modifications: PEPTIDE (1)...(131) wild-type rat intestinal fatty acid binding protein
B19: 55A1, 72A (protein, listed as Rattus norvegicus)
chain: AFDGTWKVDRNENYEKFMEKMGINVVKRKLGAHDNLKLTITQEGNKFTVKESSNARNIDVVFELGVDFAYSAADGTELTGTWTMEGNKLVGKFKRVDNGKELIAVREISGNELIQTYTYEGVEAKRIFKKE
modifications: PEPTIDE (1)...(131) wild-type rat intestinal fatty acid binding protein
B20: 51N1, 72A (protein, listed as Rattus norvegicus)
chain: AFDGTWKVDRNENYEKFMEKMGINVVKRKLGAHDNLKLTITQEGNKFTVKNSSNFRNIDVVFELGVDFAYSAADGTELTGTWTMEGNKLVGKFKRVDNGKELIAVREISGNELIQTYTYEGVEAKRIFKKE
modifications: PEPTIDE (1)...(131) wild-type rat intestinal fatty acid binding protein
B21: 55I1, 72A (protein, listed as Rattus norvegicus)
chain: AFDGTWKVDRNENYEKFMEKMGINVVKRKLGAHDNLKLTITQEGNKFTVKESSNIRNIDVVFELGVDFAYSAADGTELTGTWTMEGNKLVGKFKRVDNGKELIAVREISGNELIQTYTYEGVEAKRIFKKE
modifications: PEPTIDE (1)...(131) wild-type rat intestinal fatty acid binding protein
B22: 51Q1, 72A (protein, listed as Rattus norvegicus)
chain: AFDGTWKVDRNENYEKFMEKMGINVVKRKLGAHDNLKLTITQEGNKFTVKQSSNFRNIDVVFELGVDFAYSAADGTELTGTWTMEGNKLVGKFKRVDNGKELIAVREISGNELIQTYTYEGVEAKRIFKKE
modifications: PEPTIDE (1)...(131) wild-type rat intestinal fatty acid binding protein

A short description of this data set: Baseline fluorescence ratio Ro of probe in absence of analyte. The settings on record: average baseline fluorescence ratio Ro of the clone probe; substitutions with respect to SEQ ID NO: 2.
As to B1, the AvgOfRo stood at 0.42. To B2 belongs 0.25; to B3, 0.40. With B4, the AvgOfRo is on record as 0.39. For the molecule B5, the AvgOfRo was found to be 0.39. As to B6, the AvgOfRo was determined as 0.43. Take B7: the AvgOfRo is listed as 0.38. As for B8, the AvgOfRo stood at 0.40.

As for B9, the AvgOfRo amounted to 0.20. To B10 belongs 0.18; to B11, 0.18; to B12, 0.39.

For B13, the AvgOfRo came to 0.41.

For B14, the AvgOfRo is on record as 0.35.

Consider B15, for which the AvgOfRo is on record as 0.37. For B16, the AvgOfRo came out at 0.40.

Regarding B17, the AvgOfRo was determined as 0.38. As for B18, the AvgOfRo was determined as 0.38. For the molecule B19, the AvgOfRo worked out at 0.18. For B20, the AvgOfRo is 0.38.

B21: the AvgOfRo is 0.18.

Consider B22, for which the AvgOfRo is given as 0.40.
